Experimental data: PubChem BioAssay AID1159618 (Peter MacCallum Cancer Centre, 2016)
This is an unselected part of 153 reagents. Over the whole deposit, 111 (73%) are marked active. 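Migration not corrected for cell number; some knock-downs also lowered nuclei counts, so reduced closure may partly reflect fewer cells.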 Entries without a mark were called inactive. Not stated in the record: the time to read-out.

Test: 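Retest earlier hits for effects on endothelial scratch closure in two cell types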 (follow-up of hits)
System: human HMBEC blood microvascular and HDLEC dermal lymphatic endothelial cells
Reagent: siRNA pool against human genes, 40 nM
Measured: 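Scratch wounds imaged automatically; migrated area scaled to mock-transfected mean and averaged across two replicates, with per-well nuclei counts recorded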
Reading the numbers: migration vs mock, HMBEC and migration vs mock, HDLEC: higher = more migration into the scratch; nuclei count, HMBEC and nuclei count, HDLEC: higher = more cells
Rule for the call: 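a knock-down counts as active if migrated area in either cell type is under 0.65 of the mock level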
Meaning of the calls: active = migration impaired; inactive = no change

gene symbol	cell type with impaired migration	migration vs mock, HMBEC	migration vs mock, HDLEC	nuclei count, HMBEC	nuclei count, HDLEC
SDCCAG8	no change in either cell type	0.763	0.71	3236	4519
DOT1L	impaired only in lymphatic endothelial cells (active)	0.672	0.568	3901	6200
FLT3	no change in either cell type	0.804	0.948	3878	5695
CWC22	impaired in both blood and lymphatic cells (active)	0.505	0.366	3874	5673
TES	impaired in both blood and lymphatic cells (active)	0.376	0.539	2681	5242
APOA2	impaired in both blood and lymphatic cells (active)	0.439	0.422	2694	4350

Quoted from the listing (3 entries):
gene symbol	cell type with impaired migration	migration vs mock, HMBEC	migration vs mock, HDLEC	nuclei count, HMBEC	nuclei count, HDLEC
DOT1L	impaired only in lymphatic endothelial cells (active)	0.672	0.568	3901	6200
FLT3	no change in either cell type	0.804	0.948	3878	5695
CWC22	impaired in both blood and lymphatic cells (active)	0.505	0.366	3874	5673

Continued.
gene symbol	cell type with impaired migration	migration vs mock, HMBEC	migration vs mock, HDLEC	nuclei count, HMBEC	nuclei count, HDLEC
RET	no change in either cell type	0.937	0.787	4315	5780
S1PR1	impaired in both blood and lymphatic cells (active)	0.367	0.497	2808	4910
APBA3	no change in either cell type	0.839	0.752	4226	5821
MTARC1	no change in either cell type	1.03	1.04	4688	6649
TNFRSF8	no change in either cell type	0.72	0.686	3585	5388
ATRAID	impaired in both blood and lymphatic cells (active)	0.242	0.395	3190	4744
TMEM132E	impaired in both blood and lymphatic cells (active)	0.468	0.148	3376	5056
CEPT1	impaired in both blood and lymphatic cells (active)	0.466	0.619	2798	4593
TTLL3	impaired in both blood and lymphatic cells (active)	0.238	0.221	3550	5236
CSNK1G3	no change in either cell type	0.7	1.2	3816	6134
GCK	no change in either cell type	0.944	0.765	5282	6985
TMEM121B	impaired in both blood and lymphatic cells (active)	0.472	0.53	3193	4652
BORCS6	impaired in both blood and lymphatic cells (active)	0.479	0.489	2991	4419
TYRO3	impaired only in blood endothelial cells (active)	0.472	0.751	3281	5696
